Data from PubChem BioAssay AID493014 (National Center for Advancing Translational Sciences (NCATS), 2011).
Some of the results follow. The main result of the screen is listed elsewhere. These columns were measured beside it and carry no call. The list favours compounds with an active or inconclusive main result. Potencies come from curve fits of mixed quality, noted in brackets.

Experiment: qHTS Assay to Find Inhibitors of Chronic Active B-Cell Receptor Signaling
Conditions: ABC-DLBCL IkBa-CBG/CBR reporter, luminescence ratio (green luciferase fused to IkBa over red control in TMD8 lymphoma cells), 4 h
Summary of the method: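 Concentration-response series (up to 46 uM) were applied to TMD8 dual-reporter cells for 4 h at 37C with doxycycline. Green/red ratio, after filter-overlap correction, defined %Activity; red signal alone was normalised to basal cells and zero luminescence.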

[1] = measured here: CBR red luminescence, cell number
[2] = measured here: IkBa-CBG green luminescence

CCC1(CC)NC(=O)N(CC(=O)OCC(=O)NC(=O)c2ccc(Cl)cc2)C1=O
AC50 [1]: 3.98 µM [rising, partial curve, poor fit]

CC(=O)c1sc(NC(=O)CCS(=O)(=O)c2ccc(C)cc2)nc1C
AC50 [1]: 6.51 µM [falling, partial curve]

O=C(CCCc1c[nH]c2ccccc12)N1CCOCC1
AC50 [1]: 15.8 µM [falling, single point]

COc1cc(C)ccc1OCCOCCOc1ccccc1[N+](=O)[O-]
AC50 [1]: 11.6 µM [rising, partial curve]

CC(/C=N/NC(=O)c1cccc(F)c1)=C\c1ccccc1
AC50 [1]: 15.8 µM [falling, partial curve, poor fit]

Cc1ccc(S(=O)(=O)N(C)CC(O)Cn2c3ccccc3c3ccccc32)cc1 (stereo not drawn)
AC50 [1]: 29.1 µM [falling, single point]

N#Cc1nc(-c2ccc(OCc3ccccc3)cc2)oc1NCCCn1ccnc1
AC50 [1]: 5.62 µM [falling, single point]

CC1CCc2sc(C(=O)NNC(=S)NC3CC3)cc2C1 (stereo not drawn)
AC50 [1]: 0.447 µM [rising, full curve, poor fit]

COC(=O)c1ccc(C2C(C(=O)c3ccc(C)o3)=C(O)C(=O)N2c2cc(C)on2)cc1 (stereo not drawn)
AC50 [1]: 6.31 µM [rising, single point]

O=C(NCCC1CCCCN1S(=O)(=O)c1ccccc1)C(=O)Nc1ccc(F)cc1F (stereo not drawn)
AC50 [1]: 16.4 µM [falling, partial curve, poor fit]

COc1ccccc1OCCNC(=O)c1cccs1
AC50 [1]: 35.5 µM [falling, single point]

C#CCNC(=O)C1=C[C@@H](C2CCCCC2)C[C@@H](OCCCCO)O1
AC50 [1]: 11.2 µM [rising, partial curve, poor fit]

Cc1csc(NC(=O)CCn2c(=O)sc3ccccc32)n1
AC50 [1]: 0.326 µM [falling, full curve]

COc1ccccc1/C=C/C=N/NC(=O)c1ccc2nc[nH]c2c1
AC50 [1]: 2.51 µM [falling, full curve]

Cc1ccc(S(=O)(=O)N2CCN(c3nc(C(C)C)c4c(c3C#N)CC(C)(C)OC4)CC2)cc1
AC50 [1]: 29.1 µM [rising, single point]

CN1C(=O)C(CC(=O)Nc2ccc(F)cc2)N(Cc2cccs2)C1=S (stereo not drawn)
AC50 [1]: 35.5 µM [falling, single point]

NNC(=S)Nc1ccc(Cl)cc1
AC50 [1]: 11.2 µM [rising, partial curve, poor fit] | AC50 [2]: 35.5 µM [falling, partial curve, poor fit]

COc1ccc(NC(=O)CN(c2cc(C)cc(C)c2)S(=O)(=O)c2c(C)n[nH]c2C)cc1
AC50 [1]: 7.31 µM [falling, partial curve] | AC50 [2]: 1.03 µM [rising, partial curve, poor fit]

O=C(NNc1cccc(Cl)n1)Nc1cccc(Cl)c1
AC50 [1]: 1.64 µM [falling, full curve]

COC(=O)c1ccc(Oc2nc(NC(C)C)nc(SC)n2)cc1
AC50 [1]: 4.11 µM [falling, full curve, poor fit]

Cc1cccc(OCC(=O)NCc2n[nH]c(=O)c3ccccc23)c1
AC50 [1]: 11.6 µM [falling, partial curve]

C/C(=N\NC(=O)c1cccs1)c1cccnc1
AC50 [1]: 22.4 µM [falling, single point]

CCCCCCN(C(=O)CCCCCN1C(=O)NC(c2ccc(-c3ccccc3)cc2)C(C(=O)OCc2ccccc2)=C1C)C(C(=O)NCCCC)c1ccccn1 (stereo not drawn)
AC50 [1]: 7.94 µM [falling, partial curve, poor fit]

c1ccc2c(Nc3nnc(-c4ccncc4)s3)cccc2c1
AC50 [1]: 12.6 µM [falling, partial curve, poor fit]

COc1cc(/C=N/NC(=O)c2ccccc2)ccc1OS(=O)(=O)c1ccccc1
AC50 [1]: 10.3 µM [falling, single point]

O=C(Cc1ccc(F)cc1)NC1CCSC1=O (stereo not drawn)
AC50 [1]: 17.8 µM [rising, single point]

O=C(CCc1ccccc1)N=C1SC2CS(=O)(=O)CC2N1c1ccccc1F (stereo not drawn)
AC50 [1]: 2.51 µM [rising, full curve, poor fit]

COc1ccc2[nH]cc(C(=O)CN3CCN(C/C=C/c4ccccc4)CC3)c2c1
AC50 [1]: 10 µM [falling, partial curve, poor fit]

CCN(CC)CCNc1ccc(CO)c2sc3ccccc3c(=O)c12
AC50 [1]: 11.2 µM [falling, partial curve]

Cc1c(C(=O)N2CCN(Cc3ccc4c(c3)OCO4)CC2)sc2ncnc(N3CCN(c4ccccc4)CC3)c12
AC50 [1]: 6.31 µM [falling, partial curve]

O=C(NNCc1ccc(O)cc1)c1ccccc1Cl
AC50 [1]: 6.31 µM [falling, full curve]

NC(=S)N/N=C/c1coc2cc(Cl)ccc2c1=O
AC50 [1]: 5.17 µM [rising, full curve] | AC50 [2]: 4.11 µM [rising, full curve, poor fit]

COc1ccc(C(CNC(=O)c2c(C)nn(Cc3ccc(C)cc3)c2Cl)N2CCOCC2)cc1 (stereo not drawn)
AC50 [1]: 29.1 µM [rising, single point] | AC50 [2]: 18.4 µM [falling, partial curve, poor fit]

Cc1nc(Nc2ccncc2)c2oc3ccccc3c2n1
AC50 [1]: 18.4 µM [falling, single point]

Cc1ccc(Cc2nc(-c3ccccn3)no2)cc1
AC50 [1]: 1 µM [rising, full curve, poor fit]

COc1ccc(NC(=S)NC2CCCCC2)c(OC)c1
AC50 [1]: 35.5 µM [falling, single point]

Cc1ccc(SCc2cc(=O)[nH]c(Nc3nc(C)c4ccccc4n3)n2)cc1
AC50 [1]: 16.4 µM [rising, partial curve, poor fit]

O=C(CSc1nc(-c2ccccc2)c(-c2ccccc2)[nH]1)N1CCN(S(=O)(=O)c2ccccc2)CC1
AC50 [1]: 18.4 µM [falling, single point]

CCOc1ccc(CN2CCN(CC3CC3)CC2CCO)cc1 (stereo not drawn)
AC50 [1]: 6.31 µM [rising, partial curve, poor fit]
